Results deposited as PubChem BioAssay AID1259308 (NCATS, 2017).

Purpose: 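Candidate targets for better recombinant protein yield in mammalian cells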 (primary screen)
System: human HEK293 embryonic kidney cells stably expressing firefly luciferase (HEK-CMV-Luc2-Hygro)
Reagents: single siRNA against human genes, 0.8 pmol siRNA per well
Time to read-out: 72 h
Detection: 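Reporter luminescence and viable-cell signal on separate replicate plates, given as percent of non-targeting control and median/MAD z-scores, plus per-cell luciferase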
Reading the numbers: total luciferase, z-score: higher = more reporter protein produced
Hit rule: 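Active when the median/MAD z-score for overall luciferase is greater than 3; a gene was taken forward for validation with new siRNAs if at least two of its three siRNAs passed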
Meaning of the calls: active = raised luciferase; inactive = no rise
Shown is one part, drawn at random, of about 59,000 deposited reagents. Over the whole deposit, about 1,510 (2.6%) are marked active. 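Calls use total luciferase alone and ignore viability, so some active siRNAs may act by altering cell number.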 A number with no mark means an inactive call. Reagents against one gene are numbered here. Not all columns of the deposit are shown.

total luciferase, z-score, by target gene and reagent
AGBL4: #1 -1.64; #2 -0.845; #3 0.86
GDF15: #1 0.204; #2 -1.43; #3 3.81 (active)
IL36B: #1 -0.441; #2 -0.24; #3 0.373
MT1H: #1 -1.48; #2 1.76; #3 0.0347
MRE11: #1 0.366; #2 -0.781; #3 -0.656
IER2: #1 -1.88; #2 -0.000997; #3 -1.59
GPM6A: #1 0.236; #2 0.0886; #3 0.269
STK32A: #1 0.238; #2 0.174; #3 0.807
PTRH1: #1 0.267; #2 -0.75; #3 1.48
MINDY4: #1 0.312; #2 -1.12; #3 3.44 (active)
RBP5: #1 0.113; #2 -0.646; #3 0.256
C21orf91: #1 -2.44; #2 1.3; #3 1.91
NPAS4: #1 -0.662; #2 0.0673; #3 2.58
SLC12A7: #1 -0.877; #2 -0.869; #3 2
FCRL3: #1 -0.441; #2 -0.663; #3 0.156
GPSM1: #1 0.873; #2 0.352; #3 2.53
NPIPB15: #1 -0.0651; #2 -0.731; #3 -2.52
SERPINB11: #1 -0.512; #2 -1.16; #3 -0.647
ACTA1: #1 3.71 (active); #2 2.71; #3 1.11

Targets above whose target name begins with A or a:
total luciferase, z-score, by target gene and reagent
AGBL4: #1 -1.64; #2 -0.845; #3 0.86
ACTA1: #1 3.71 (active); #2 2.71; #3 1.11
